Results: the supplement of paper PMC10849652
Some of the results follow.

Amino acid sequences for entries named in this document (tags omitted). A change or cut given only in a name is not applied to a line headed by its entry.
UniProt P11234: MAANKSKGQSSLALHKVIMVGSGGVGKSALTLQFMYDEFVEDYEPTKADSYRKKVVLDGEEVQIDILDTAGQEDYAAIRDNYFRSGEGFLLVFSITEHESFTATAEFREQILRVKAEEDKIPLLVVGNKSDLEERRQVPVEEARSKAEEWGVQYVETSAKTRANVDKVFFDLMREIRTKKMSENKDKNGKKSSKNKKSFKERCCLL
UniProt P53611: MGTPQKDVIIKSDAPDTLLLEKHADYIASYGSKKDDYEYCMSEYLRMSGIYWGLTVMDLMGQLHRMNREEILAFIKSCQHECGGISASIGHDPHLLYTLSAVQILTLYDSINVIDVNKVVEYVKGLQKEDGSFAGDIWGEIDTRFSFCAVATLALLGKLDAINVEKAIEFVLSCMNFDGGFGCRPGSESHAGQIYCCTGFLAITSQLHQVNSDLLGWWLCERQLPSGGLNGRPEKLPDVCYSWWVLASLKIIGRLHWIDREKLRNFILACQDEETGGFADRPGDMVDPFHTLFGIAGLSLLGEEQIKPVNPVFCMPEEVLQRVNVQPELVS
UniProt Q92930: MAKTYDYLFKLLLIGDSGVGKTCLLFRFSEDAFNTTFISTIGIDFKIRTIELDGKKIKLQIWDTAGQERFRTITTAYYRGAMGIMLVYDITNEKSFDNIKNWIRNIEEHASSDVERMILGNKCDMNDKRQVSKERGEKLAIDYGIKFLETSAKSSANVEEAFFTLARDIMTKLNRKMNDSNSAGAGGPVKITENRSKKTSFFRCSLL
UniProt P51151: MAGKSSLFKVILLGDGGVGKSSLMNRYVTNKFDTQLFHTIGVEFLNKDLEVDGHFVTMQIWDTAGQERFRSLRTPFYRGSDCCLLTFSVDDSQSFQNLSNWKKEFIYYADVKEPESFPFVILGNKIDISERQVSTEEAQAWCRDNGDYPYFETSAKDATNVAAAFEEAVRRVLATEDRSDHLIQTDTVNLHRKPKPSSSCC
UniProt Q9NW64: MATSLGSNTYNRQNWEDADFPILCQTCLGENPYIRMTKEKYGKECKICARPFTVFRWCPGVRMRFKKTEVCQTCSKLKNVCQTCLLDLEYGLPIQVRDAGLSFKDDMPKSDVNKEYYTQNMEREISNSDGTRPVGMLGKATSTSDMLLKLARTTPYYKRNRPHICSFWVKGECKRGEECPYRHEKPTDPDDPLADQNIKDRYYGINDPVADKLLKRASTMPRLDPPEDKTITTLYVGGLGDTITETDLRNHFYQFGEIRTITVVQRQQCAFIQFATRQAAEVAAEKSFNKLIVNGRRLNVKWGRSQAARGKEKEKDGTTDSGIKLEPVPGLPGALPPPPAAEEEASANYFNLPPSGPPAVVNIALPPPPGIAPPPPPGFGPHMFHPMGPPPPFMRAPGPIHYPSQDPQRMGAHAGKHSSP
UniProt P49756, whole entry, looked up: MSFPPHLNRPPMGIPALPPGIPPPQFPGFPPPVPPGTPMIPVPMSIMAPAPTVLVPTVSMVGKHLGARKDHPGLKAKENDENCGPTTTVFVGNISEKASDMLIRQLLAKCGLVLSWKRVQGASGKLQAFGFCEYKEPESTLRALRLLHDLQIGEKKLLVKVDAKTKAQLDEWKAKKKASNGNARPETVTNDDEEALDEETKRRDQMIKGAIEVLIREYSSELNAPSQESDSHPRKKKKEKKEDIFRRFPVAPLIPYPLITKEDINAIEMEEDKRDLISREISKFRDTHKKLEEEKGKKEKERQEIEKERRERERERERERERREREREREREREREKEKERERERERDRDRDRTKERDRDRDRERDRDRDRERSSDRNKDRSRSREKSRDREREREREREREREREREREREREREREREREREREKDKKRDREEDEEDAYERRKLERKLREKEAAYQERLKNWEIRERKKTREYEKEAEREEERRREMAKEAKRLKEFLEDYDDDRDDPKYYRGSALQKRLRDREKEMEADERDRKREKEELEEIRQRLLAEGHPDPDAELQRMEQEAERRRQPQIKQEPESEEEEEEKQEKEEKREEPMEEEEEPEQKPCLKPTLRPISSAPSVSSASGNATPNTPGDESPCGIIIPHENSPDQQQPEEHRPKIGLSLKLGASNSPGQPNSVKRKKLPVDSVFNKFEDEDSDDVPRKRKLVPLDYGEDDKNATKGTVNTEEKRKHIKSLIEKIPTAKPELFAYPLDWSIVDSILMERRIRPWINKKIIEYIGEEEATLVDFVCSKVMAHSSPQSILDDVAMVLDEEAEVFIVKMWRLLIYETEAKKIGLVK
UniProt P06400: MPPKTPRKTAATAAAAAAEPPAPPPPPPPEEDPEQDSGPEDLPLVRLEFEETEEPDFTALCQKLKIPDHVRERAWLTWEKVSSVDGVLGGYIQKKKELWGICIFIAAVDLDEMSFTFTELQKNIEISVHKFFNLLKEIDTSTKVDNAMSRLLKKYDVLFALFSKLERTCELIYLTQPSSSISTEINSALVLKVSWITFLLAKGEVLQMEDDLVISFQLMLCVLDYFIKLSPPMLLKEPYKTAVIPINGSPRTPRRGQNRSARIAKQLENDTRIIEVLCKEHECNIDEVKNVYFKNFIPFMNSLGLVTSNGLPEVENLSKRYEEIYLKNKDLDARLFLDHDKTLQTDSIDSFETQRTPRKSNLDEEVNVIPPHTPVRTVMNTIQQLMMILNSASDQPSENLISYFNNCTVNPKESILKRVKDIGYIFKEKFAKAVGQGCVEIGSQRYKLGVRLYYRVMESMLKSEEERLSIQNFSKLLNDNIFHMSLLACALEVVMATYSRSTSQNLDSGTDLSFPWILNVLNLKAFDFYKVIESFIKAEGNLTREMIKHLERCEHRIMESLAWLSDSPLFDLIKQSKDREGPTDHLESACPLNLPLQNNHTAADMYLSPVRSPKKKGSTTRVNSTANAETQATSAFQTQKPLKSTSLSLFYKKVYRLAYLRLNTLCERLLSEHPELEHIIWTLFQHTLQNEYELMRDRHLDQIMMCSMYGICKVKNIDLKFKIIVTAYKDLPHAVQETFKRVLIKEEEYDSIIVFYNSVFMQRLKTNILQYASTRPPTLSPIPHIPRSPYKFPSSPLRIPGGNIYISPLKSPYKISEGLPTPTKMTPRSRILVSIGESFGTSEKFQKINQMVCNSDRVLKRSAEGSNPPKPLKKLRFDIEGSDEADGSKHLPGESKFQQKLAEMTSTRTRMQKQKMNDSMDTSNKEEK
UniProt Q9NS91, whole entry, looked up: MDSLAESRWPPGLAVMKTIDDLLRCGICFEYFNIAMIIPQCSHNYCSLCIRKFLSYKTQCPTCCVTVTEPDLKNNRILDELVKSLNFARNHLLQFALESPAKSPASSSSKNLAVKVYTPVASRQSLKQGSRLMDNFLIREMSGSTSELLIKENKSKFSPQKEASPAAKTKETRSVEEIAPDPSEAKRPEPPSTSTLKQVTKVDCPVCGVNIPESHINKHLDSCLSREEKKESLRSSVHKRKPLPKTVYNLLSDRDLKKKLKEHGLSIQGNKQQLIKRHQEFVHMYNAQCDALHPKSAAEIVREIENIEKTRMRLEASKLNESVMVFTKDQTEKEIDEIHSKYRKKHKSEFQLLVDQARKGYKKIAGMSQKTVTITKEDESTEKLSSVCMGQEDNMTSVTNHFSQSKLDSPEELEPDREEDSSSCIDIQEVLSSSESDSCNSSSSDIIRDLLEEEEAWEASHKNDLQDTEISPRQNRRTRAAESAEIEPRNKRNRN
UniProt P61106, whole entry, looked up: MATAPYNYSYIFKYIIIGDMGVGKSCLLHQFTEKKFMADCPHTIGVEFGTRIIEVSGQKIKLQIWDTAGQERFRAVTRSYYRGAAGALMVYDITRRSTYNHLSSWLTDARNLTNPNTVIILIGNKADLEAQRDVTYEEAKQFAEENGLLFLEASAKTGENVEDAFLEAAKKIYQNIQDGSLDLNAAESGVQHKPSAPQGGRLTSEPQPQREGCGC
UniProt O60671: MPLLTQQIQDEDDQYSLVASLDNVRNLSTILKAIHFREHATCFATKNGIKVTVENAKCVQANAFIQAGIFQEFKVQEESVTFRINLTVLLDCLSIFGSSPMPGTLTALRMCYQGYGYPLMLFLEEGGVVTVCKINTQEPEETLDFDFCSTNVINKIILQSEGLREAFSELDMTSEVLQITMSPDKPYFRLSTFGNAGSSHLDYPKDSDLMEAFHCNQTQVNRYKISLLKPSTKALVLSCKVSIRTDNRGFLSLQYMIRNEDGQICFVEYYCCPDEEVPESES
UniProt Q6GYQ0: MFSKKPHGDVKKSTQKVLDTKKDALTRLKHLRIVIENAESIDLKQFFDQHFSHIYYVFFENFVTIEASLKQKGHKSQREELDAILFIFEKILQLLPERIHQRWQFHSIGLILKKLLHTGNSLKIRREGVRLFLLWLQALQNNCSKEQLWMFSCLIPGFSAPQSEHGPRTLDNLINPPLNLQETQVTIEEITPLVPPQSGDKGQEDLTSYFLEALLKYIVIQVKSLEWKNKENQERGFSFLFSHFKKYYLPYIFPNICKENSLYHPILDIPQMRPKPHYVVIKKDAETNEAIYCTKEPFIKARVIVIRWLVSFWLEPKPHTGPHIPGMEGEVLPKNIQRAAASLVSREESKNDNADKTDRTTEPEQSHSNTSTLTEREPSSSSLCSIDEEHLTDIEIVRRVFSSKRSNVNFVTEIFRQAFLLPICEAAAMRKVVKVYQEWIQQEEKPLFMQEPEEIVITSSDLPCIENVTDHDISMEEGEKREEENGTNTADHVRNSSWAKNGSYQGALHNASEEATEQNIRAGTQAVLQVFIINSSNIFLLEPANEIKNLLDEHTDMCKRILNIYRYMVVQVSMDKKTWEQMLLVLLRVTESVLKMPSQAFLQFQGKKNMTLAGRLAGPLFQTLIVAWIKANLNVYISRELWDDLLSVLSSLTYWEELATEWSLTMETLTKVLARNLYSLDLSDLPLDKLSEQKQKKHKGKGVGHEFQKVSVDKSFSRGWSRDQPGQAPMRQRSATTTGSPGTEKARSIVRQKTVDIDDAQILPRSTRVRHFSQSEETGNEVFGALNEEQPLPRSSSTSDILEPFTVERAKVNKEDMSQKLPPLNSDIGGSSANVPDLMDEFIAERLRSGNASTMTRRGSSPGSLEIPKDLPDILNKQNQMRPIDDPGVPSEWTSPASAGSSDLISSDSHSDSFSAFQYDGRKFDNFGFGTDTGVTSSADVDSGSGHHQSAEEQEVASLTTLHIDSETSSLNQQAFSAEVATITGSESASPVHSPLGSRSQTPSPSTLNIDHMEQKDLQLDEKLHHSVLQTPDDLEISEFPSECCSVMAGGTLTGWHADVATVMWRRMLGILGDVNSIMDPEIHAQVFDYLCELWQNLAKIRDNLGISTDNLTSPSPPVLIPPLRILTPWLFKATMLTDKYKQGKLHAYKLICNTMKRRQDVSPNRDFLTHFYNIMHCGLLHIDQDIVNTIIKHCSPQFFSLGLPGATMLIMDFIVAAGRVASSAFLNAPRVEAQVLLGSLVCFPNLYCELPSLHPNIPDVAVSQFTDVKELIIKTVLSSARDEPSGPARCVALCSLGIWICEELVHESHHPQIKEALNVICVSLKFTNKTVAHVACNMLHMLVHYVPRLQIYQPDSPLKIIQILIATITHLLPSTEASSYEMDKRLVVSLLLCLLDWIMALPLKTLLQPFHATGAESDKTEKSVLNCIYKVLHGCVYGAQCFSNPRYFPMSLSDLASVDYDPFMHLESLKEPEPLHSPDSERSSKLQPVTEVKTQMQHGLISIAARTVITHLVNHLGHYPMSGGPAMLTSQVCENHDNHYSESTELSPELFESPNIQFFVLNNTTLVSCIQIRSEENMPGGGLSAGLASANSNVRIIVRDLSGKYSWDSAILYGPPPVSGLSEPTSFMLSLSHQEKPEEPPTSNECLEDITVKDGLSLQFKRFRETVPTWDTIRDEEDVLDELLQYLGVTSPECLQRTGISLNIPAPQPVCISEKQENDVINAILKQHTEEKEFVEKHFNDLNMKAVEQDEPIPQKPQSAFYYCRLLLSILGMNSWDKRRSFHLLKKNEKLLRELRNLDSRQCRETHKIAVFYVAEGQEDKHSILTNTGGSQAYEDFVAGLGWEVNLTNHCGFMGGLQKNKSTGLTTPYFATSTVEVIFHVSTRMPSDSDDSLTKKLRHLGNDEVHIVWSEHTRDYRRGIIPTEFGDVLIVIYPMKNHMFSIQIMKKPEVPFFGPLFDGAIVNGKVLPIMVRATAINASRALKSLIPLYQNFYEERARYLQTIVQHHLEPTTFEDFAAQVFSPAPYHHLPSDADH
UniProt P43487, whole entry, looked up: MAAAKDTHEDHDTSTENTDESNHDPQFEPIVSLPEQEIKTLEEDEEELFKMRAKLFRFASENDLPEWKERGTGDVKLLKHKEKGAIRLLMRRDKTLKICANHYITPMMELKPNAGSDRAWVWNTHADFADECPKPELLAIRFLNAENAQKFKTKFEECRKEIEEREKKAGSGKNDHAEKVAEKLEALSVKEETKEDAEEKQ
UniProt Q13636: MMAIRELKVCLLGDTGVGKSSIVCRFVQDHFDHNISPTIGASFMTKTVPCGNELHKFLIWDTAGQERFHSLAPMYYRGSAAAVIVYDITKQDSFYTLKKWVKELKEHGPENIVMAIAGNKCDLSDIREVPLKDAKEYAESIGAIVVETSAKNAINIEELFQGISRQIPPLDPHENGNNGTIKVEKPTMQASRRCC

Compound: CCCS(=O)(=O)Nc1ccc(F)c(C(=O)c2c[nH]c3ncc(Cl)cc23)c1F
Assay: log2 fold change, soluble protein after heating vs DMSO (PISA); higher = thermal stabilisation; K562 cells, 10 uM, 30 min; active = over 0.2 and 3.5 SD of the protein, either way, in both replicates (recomputed)
Method in brief: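 K562 cells at 2×10^6 cells/mL were exposed to 10 μM compound for 30 min, then aliquots were heated for 3 min across 48°C-58°C, pooled, and extracted in PBS containing 0.5% NP-40 at 4°C. The supernatant after 21,000xg for 90 min was taken as soluble protein and measured by TMTpro 16plex LC-MS/MS with channel sums equalised. Thermal stability is reported relative to control samples, with values from duplicates. Fold changes are given on a log2 scale.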

log2 fold change, inactive:
RALB isoform 2 (UniProt P11234) 0
RACK1 (UniProt P63244) -0.008
RAB11A (UniProt P62491) -0.164
RAB3A (UniProt P20336) -0.042
RABGGTB (UniProt P53611) 0.044
RAP1A (UniProt P62834) -0.029
RAP1GDS1 isoform 5 (UniProt P52306) 0.174
RANBP9 (UniProt Q96S59) -0.007
RAB8B (UniProt Q92930) 0.018
RAB9A (UniProt P51151) -0.024
RAPGEF2, A0A2R8YGD3 -0.05
RBM22 (UniProt Q9NW64) -0.004
RACK1 (UniProt D6RF23) -0.343
RABAC1 (UniProt Q9UI14) -0.091
RBM25 (UniProt P49756) 0
RAB2B (UniProt Q8WUD1) 0.042
RAB3IL1 (UniProt Q8TBN0) 0.062
RB1 (UniProt P06400) -0.008
RAB4B isoform 2 (UniProt P61018) 0.003
RAD18 (UniProt Q9NS91) 0.113
RBM3 (UniProt P98179) -0.023
RAD21 (UniProt O60216) 0.047
RAB14 (UniProt P61106) 0.018
RAD1 (UniProt O60671) 0.02
RAB6D (UniProt Q53S08) -0.052
RALGAPA1 isoform 6 (UniProt Q6GYQ0) 0.11
RAB5C isoform 2 (UniProt P51148) 0.008
RAN (UniProt P62826) -0.092
RBBP4 (UniProt Q09028) -0.008
RB1CC1 (UniProt Q8TDY2) -0.034
RANBP1 (UniProt P43487) 0
RAB31 (UniProt Q13636) -0.019
RBM27 (UniProt Q9P2N5) 0.09

Random excerpt: 2 records from the list
log2 fold change, inactive:
RB1CC1 (UniProt Q8TDY2) -0.034
RAB31 (UniProt Q13636) -0.019
